Measured values: PubChem BioAssay AID1487 (National Center for Advancing Translational Sciences (NCATS), 2009)
This is one part of the list. The main result of the screen is listed elsewhere. These columns were measured beside it and carry no call. The list favours compounds with an active or inconclusive main result. The note in brackets gives the kind of curve behind each potency; many fits are weak.

Assay: qHTS Assay for Modulators of Lamin A Splicing
Conditions: HeLa LMNA splicing GFP/RFP minigene ratio, 48 h
Method in brief: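 S3 HeLa stable clones carrying a lamin A-EGFP splicing minigene plus DsRed2 were seeded at 600 cells/well in Opti-MEM with 2% FBS, pin-dosed and incubated 48 h at 37°C. Acumen cytometry (488 nm) gave the GFP/RFP total-intensity ratio.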

[1] = measured here: GFP splicing reporter channel
[2] = measured here: RFP viability control channel

Structure (SMILES): CCc1cc2c(=O)[nH]c(-c3ccccn3)nc2s1
- AC50 [1]: 4.47 µM [rising, full curve, poor fit]
- AC50 [2]: 5.01 µM [rising, full curve]

Structure (SMILES): CCNC(=S)N(CCc1c(C)[nH]c2ccc(C)cc12)Cc1cc(OC)c(OC)c(OC)c1
- AC50 [1]: 2.82 µM [rising, full curve, poor fit]
- AC50 [2]: 8.91 µM [rising, partial curve]

Structure (SMILES): Cc1nc2ccc(S(=O)(=O)N(C)CC(=O)N3CCc4ccccc4C3)cc2s1
- AC50 [1]: 5.62 µM [rising, partial curve]
- AC50 [2]: 12.6 µM [rising, single point]

Structure (SMILES): CCOn1c(=O)c(-c2cccc3ccccc23)[n+]([O-])c2ccccc21
- AC50 [2]: 5.62 µM [rising, single point]

Structure (SMILES): CCOC(=O)c1c(C)oc2nc(C)nc(N(CC(C)C)CC(C)C)c12
- AC50 [1]: 31.6 µM [falling, partial curve]
- AC50 [2]: 22.4 µM [falling, partial curve, poor fit]

Structure (SMILES): CCC1(c2ccccc2)NC(=O)N(Cc2cccc([N+](=O)[O-])c2)C1=O (configuration not stated)
- AC50 [1]: 0.01 µM [falling, full curve, poor fit]

Structure (SMILES): O=C(c1ccccc1)c1cccc(NC(=O)c2ccco2)c1
- AC50 [1]: 8.91 µM [rising, partial curve]

Structure (SMILES): CC1=NN(c2ccccc2)C(=O)/C1=C\c1cn(C)c2ccccc12
- AC50 [2]: 2.24 µM [rising, partial curve, poor fit]

Structure (SMILES): COc1ccc2[nH]c(C)c(CCN(Cc3cccs3)C(=S)Nc3ccc(F)cc3)c2c1
- AC50 [2]: 12.6 µM [rising, partial curve]

Structure (SMILES): Cc1ccc(C(=O)NCC(=O)OCC(=O)N2CCCc3ccccc32)cc1
- AC50 [1]: 11.2 µM [rising, partial curve]

Structure (SMILES): COc1ccc(NC(=S)Nc2ccc(C)c(S(=O)(=O)N3CCCCC3)c2)cc1
- AC50 [1]: 14.1 µM [rising, single point]
- AC50 [2]: 17.8 µM [rising, partial curve]

Structure (SMILES): CCCCN(C)S(=O)(=O)c1cc(Br)cc2c1N(C(=O)C1CC1)CC2
- AC50 [2]: 17.8 µM [rising, single point]

Structure (SMILES): O=C(c1ccc(Cn2c(=O)[nH]c3ccccc3c2=O)cc1)N1CCN(c2ccc(F)cc2)CC1
- AC50 [2]: 35.5 µM [rising, single point]

Structure (SMILES): COc1ccc(CCNC(=O)Cn2c(=O)cc(C(F)(F)F)c3c(C)nn(C)c32)cc1OC
- AC50 [2]: 15.8 µM [rising, partial curve, poor fit]

Structure (SMILES): CCOc1ccc(NC(=S)NC(C)CCc2ccccc2)cc1 (configuration not stated)
- AC50 [2]: 0.501 µM [rising, single point]

Structure (SMILES): COc1ccc(-c2noc(N(C)CC(=O)Nc3cccc(C(F)(F)F)c3)n2)cc1
- AC50 [1]: 35.5 µM [falling, single point]
- AC50 [2]: 35.5 µM [falling, single point]

Structure (SMILES): CC(C)Cn1c(N)c(C(=O)COC(=O)c2cc(F)cc(F)c2)c(=O)n(C)c1=O
- AC50 [2]: 0.891 µM [rising, full curve, poor fit]

Structure (SMILES): Cc1cccc(C)c1OCC(=O)N/N=C/c1ccncc1
- AC50 [2]: 5.62 µM [rising, partial curve, poor fit]

Structure (SMILES): Cc1ccc(C)c(CSC2=NC(C)(C)Nc3ccccc32)c1
- AC50 [1]: 12.6 µM [falling, partial curve]
- AC50 [2]: 10 µM [falling, partial curve]

Structure (SMILES): Cc1cc2c(=O)n(Cc3ccco3)c(SCC(=O)N3CCCc4ccccc43)nc2s1
- AC50 [2]: 35.5 µM [rising, single point]

Structure (SMILES): CC(=O)c1cccc(NC(=O)CSc2nnc3ccc(-c4ccc(Cl)cc4)nn23)c1
- AC50 [2]: 0.355 µM [rising, full curve, poor fit]

Structure (SMILES): CN(C)c1ccc(/C=N\NC(=O)c2ccc(Cn3cc(Cl)cn3)cc2)cc1
- AC50 [1]: 11.2 µM [rising, single point]
- AC50 [2]: 12.6 µM [rising, single point]

Structure (SMILES): COc1ccc(CNC(=O)c2cnn3c(C(F)F)cc(C)nc23)cc1OC
- AC50 [2]: 12.6 µM [rising, partial curve]

Structure (SMILES): Cc1ccc(Cl)cc1NC(=O)c1sc2nc(-c3ccccc3)cn2c1C
- AC50 [1]: 0.0158 µM [rising, full curve, poor fit]

Structure (SMILES): C=CCOc1ccc(CNCCO)cc1OCC
- AC50 [1]: 35.5 µM [falling, single point]
- AC50 [2]: 35.5 µM [falling, single point]

Structure (SMILES): CC(=O)c1ccc(N2CCN(C(=O)Nc3ccc(Cl)cc3)CC2)cc1
- AC50 [2]: 0.00447 µM [falling, full curve, poor fit]

Structure (SMILES): C#CCn1c(S(=O)(=O)Cc2ccc(C)cc2)nc(-c2ccccc2)c1-c1ccccc1
- AC50 [1]: 3.55 µM [falling, full curve, poor fit]

Structure (SMILES): NC(=O)CSc1nc(N)c2c3c(sc2n1)CCCCC3
- AC50 [2]: 14.1 µM [rising, single point]

Structure (SMILES): COc1ccc(-c2nc3scc(CCNS(=O)(=O)c4cc(F)ccc4OC)n3n2)cc1OC
- AC50 [1]: 0.02 µM [falling, full curve, poor fit]

Structure (SMILES): CCOc1cccc(-c2nnc3n2N=C(c2cc(OC)ccc2OC)CS3)c1
- AC50 [2]: 2.82 µM [rising, partial curve]

Structure (SMILES): N#Cc1nc(-c2cccs2)oc1NCc1ccc2c(c1)OCO2
- AC50 [2]: 20 µM [rising, single point]

Structure (SMILES): c1ccc2c(c1)ncn2CCC1CCCCC1
- AC50 [2]: 15.8 µM [rising, single point]

Structure (SMILES): Cc1noc(C)c1CSc1nc2[nH]ncc2c(=O)n1-c1ccccc1
- AC50 [1]: 7.08 µM [falling, full curve, poor fit]

Structure (SMILES): CC(=O)N1N=C(C)CC1c1ccc(O)cc1 (configuration not stated)
- AC50 [2]: 3.16 µM [rising, full curve, poor fit]

Structure (SMILES): Cc1oc(C(=O)O)cc1COc1cccc2cccnc12
- AC50 [2]: 22.4 µM [rising, partial curve, poor fit]

Structure (SMILES): CCCCNc1nnc(SCC(=O)N2CCN(S(=O)(=O)c3ccc4ccccc4c3)CC2)s1
- AC50 [2]: 12.6 µM [rising, single point]

Structure (SMILES): COc1cc2ncnc(Nc3cccc(Cl)c3)c2cc1OC
- AC50 [1]: 6.31 µM [falling, partial curve]
- AC50 [2]: 11.2 µM [falling, partial curve]
